Laboratory results published in PubChem BioAssay AID504834 (National Center for Advancing Translational Sciences (NCATS), 2011).
The whole screen tested about 320,000 compounds, of which about 22,000 (6.9%) were called active. The inconclusive results got no clear call from the source; some entries with a clear call stand among them for comparison. Calls come from the whole dose curve; as a rule, active = well fitted inhibition curve with a large enough effect; inconclusive = small, poorly fitted or top-dose-only effect, or another doubt; inactive = no such curve, though single readings can be large or run the other way. Where the call is inconclusive, the potency comes from a doubtful curve fit.

Test: Primary qHTS for delayed death inhibitors of the malarial parasite plastid, 96 hour incubation
Conditions: P. falciparum luciferase reporter growth; series mostly up to 28.7 µM
Outline: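 Erythrocytes infected with luciferase-expressing P. falciparum were dispensed at 2% hematocrit and 0.05% parasitemia (final), then incubated with compounds 96 hours at 37 C in 5% CO2. Luminescence after detection reagent addition reported growth.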
Potency is the fitted concentration of half-maximal effect.

With O=C(Oc1ccccc1C(=O)Nc1ccccc1)c1ccc(Br)c([N+](=O)[O-])c1 as the compound, how does the Potency read?
The Potency was “inactive”.

For Cc1ccccc1-n1c(O)c(C=Nc2ccc(N(C)C)cc2)c(=O)[nH]c1=O, which Potency is on record?
Its Potency is active: 1.85 µM.

For CC12CN3CCN(CC(C3)/C1=N/N=C/c1cccc([N+](=O)[O-])c1)C2, which Potency is on record?
The Potency was inconclusive: 13.1 µM [inhibitor, partial curve, poor fit].

With c1ccc(C(CN2CCOCC2)c2ccccc2)cc1 as the compound, how does the Potency read?
Its Potency is active: 8.28 µM.

Which Potency does the source give for COc1ccc(C=C2C(=O)OC(C)(C)OC2=O)cc1OC here?
Its Potency is inconclusive: 8.28 µM [inhibitor, partial curve].

With CCCC(NCC(=O)Nc1cc(S(=O)(=O)N2CCOCC2)ccc1OC)c1ccccc1 (centres undefined) as the compound, how does the Potency read?
Its Potency is active: 11.7 µM.

Which Potency does the source give for O=C(NC(=S)N1CCN(C/C=C/c2ccccc2)CC1)c1ccco1 here?
The Potency was inconclusive: 18.5 µM [inhibitor, single point].

For O=C1C2C3C=CC(C4CC34)C2C(=O)N1/N=C/c1ccc(-c2ccccc2[N+](=O)[O-])o1 (centres undefined), which Potency is on record?
The Potency was active: 13.1 µM.

For CCCOc1ccc(C(=O)NCC(c2cccs2)N(C)C)cc1 (centres undefined), which Potency is on record?
The Potency was “inactive”.

Which Potency does the source give for COc1ccc(C(=O)Nc2cc(C(C)=O)c(/C=C/N(C)C)oc2=O)cc1 here?
Its Potency is “inactive”.

Which Potency does the source give for Cc1cc(F)ccc1S(=O)(=O)Nc1ccc(C(=O)N2CCCCCC2)cc1 here?
The Potency was inconclusive: 18.5 µM [inhibitor, single point].

For CCOC(=O)c1cc(-c2cccnc2)nn1-c1ccccn1, which Potency is on record?
Its Potency is inconclusive: 0.0928 µM [inhibitor, full curve, poor fit].

With CC(=O)c1c(C)[nH]c(C(=O)N2CCN(C(=O)c3ccco3)CC2)c1C as the compound, how does the Potency read?
Its Potency is inconclusive: 0.522 µM [inhibitor, full curve, poor fit].

Which Potency does the source give for COC(=O)c1sc(S(=O)(=O)N2CCCCC2C)c(C(=O)OC)c1C (centres undefined) here?
The Potency was inconclusive: 9.28 µM [inhibitor, single point].

With O=C(CSc1cccc[n+]1[O-])Nc1cccc(S(=O)(=O)NC2=NCCCCC2)c1 as the compound, how does the Potency read?
The Potency was “inactive”.

With COc1ccc(NS(=O)(=O)c2cccc(C(=O)N3CCN(Cc4cc(OC)ccc4OC)CC3)c2)cc1 as the compound, how does the Potency read?
The Potency was inconclusive: 3.7 µM [inhibitor, partial curve].

For N#Cc1sc2nc3c(c(-c4ccco4)c2c1N)CCCC3, which Potency is on record?
The Potency was “inactive”.

Which Potency does the source give for O=C(Nc1ccc(C(F)(F)F)cc1)N1CCN(c2ccnc3cc(Cl)ccc23)CC1 here?
Its Potency is inconclusive: 0.329 µM [inhibitor, full curve].

Which Potency does the source give for COc1ccc(C2C(C(=O)c3ccco3)=C(O)C(=O)N2CCCn2ccnc2)c(OC)c1 (centres undefined) here?
The Potency was inconclusive: 11.7 µM [inhibitor, partial curve].

For O=[N+]([O-])c1ccc(CNCc2cc(Cl)ccc2O)cc1, which Potency is on record?
Its Potency is inconclusive: 18.5 µM [inhibitor, single point].

Which Potency does the source give for Cc1ccc(C=C2C(=O)c3ccccc3C2=O)s1 here?
Its Potency is active: 11.7 µM.

With O=C(CNC(=S)N(Cc1ccccc1F)C1CCCCC1)NCCCN1CCOCC1 as the compound, how does the Potency read?
Its Potency is inconclusive: 18.5 µM [inhibitor, single point].

With CC(OC(=O)C1CCN(c2ccc(C(F)(F)F)cn2)CC1)C(=O)Nc1ccc(S(N)(=O)=O)cc1 (centres undefined) as the compound, how does the Potency read?
The Potency was active: 13.1 µM.

For CN(C(=O)CSc1nc(C2CC2)n(-c2ccccc2)n1)C1CCS(=O)(=O)C1 (centres undefined), which Potency is on record?
Its Potency is “inactive”.

For CN(C)c1nc(N(C)C)nc(N(C#N)CCOc2ccccc2)n1, which Potency is on record?
Its Potency is inconclusive: 11.7 µM [inhibitor, partial curve, poor fit].

For Cc1ccc(C)c(NC(=O)CSc2nnc([C@@H](N)Cc3ccccc3)o2)c1, which Potency is on record?
Its Potency is inconclusive: 1.85 µM [inhibitor, single point].

Which Potency does the source give for CC1(C)C(=O)OC(/C=C\c2cccc([N+](=O)[O-])c2)C(C)(C)C1=O (centres undefined) here?
Its Potency is “inactive”.

For COc1ccccc1CNC(=O)c1cnn2c(C(F)F)cc(C)nc12, which Potency is on record?
Its Potency is inconclusive: 20.8 µM [inhibitor, single point].

For Cn1c(CSc2ncccn2)nnc1SCC(=O)N1CCCC1, which Potency is on record?
Its Potency is inconclusive: 20.8 µM [inhibitor, single point].

For O=C(c1cc(-c2ccncc2)nc2ccccc12)N1CCN(S(=O)(=O)/C=C/c2ccccc2)CC1, which Potency is on record?
The Potency was inconclusive: 0.0033 µM [inhibitor, full curve, poor fit].

For COc1ccc(NC(=S)NN2CCN(C)CC2)cc1OC, which Potency is on record?
Its Potency is active: 2.33 µM.

Which Potency does the source give for C/C(=N\NC(=O)Cc1ccc(Cl)cc1)c1ccccc1O here?
The Potency was “inactive”.

With Cc1ccc2[nH]cc(CCNC(=O)c3ccc4c(c3)OCO4)c2c1 as the compound, how does the Potency read?
Its Potency is “inactive”.

For CNC(=O)c1ccsc1NC(=O)C1CCCN1S(=O)(=O)c1cccs1 (centres undefined), which Potency is on record?
The Potency was inconclusive: 5.86 µM [inhibitor, partial curve, poor fit].

For COc1ccc(-c2ccc(CCC(=O)O)n2CC(=O)Nc2cccc(OC)c2)cc1, which Potency is on record?
Its Potency is “inactive”.

For O=C(N/N=C/C(Cl)=C\c1ccccc1)c1cnccn1, which Potency is on record?
Its Potency is inconclusive: 6.57 µM [inhibitor, partial curve, poor fit].

Which Potency does the source give for NCC(c1ccc(Cl)cc1Cl)c1c[nH]c2ccccc12 (centres undefined) here?
The Potency was inconclusive: 11.7 µM [inhibitor, partial curve, poor fit].

For Cc1ccc2[nH]c(SCC(=O)N3CCOCC3)nc2c1C, which Potency is on record?
Its Potency is “inactive”.

Which Potency does the source give for CC[C@@H](CCC=C(C)C)C(=O)N(Cc1ccccc1)c1ccccc1 here?
Its Potency is inconclusive: 2.62 µM [inhibitor, full curve, poor fit].

With CCOc1ncccc1C(=O)OCC(=O)NC1CCCCCC1 as the compound, how does the Potency read?
Its Potency is inconclusive: 0.465 µM [inhibitor, full curve, poor fit].

With CC(C)NS(=O)(=O)c1ccc(NC(=O)NC2CCCCC2)cc1 as the compound, how does the Potency read?
Its Potency is inconclusive: 4.15 µM [inhibitor, single point].

With CCCOc1ccc(N2CC(C(=O)NC3=NCCS3)CC2=O)cc1 (centres undefined) as the compound, how does the Potency read?
Its Potency is inconclusive: 18.5 µM [inhibitor, partial curve, poor fit].

For CC(C)c1ccc(S(=O)(=O)N2CCN(C(=O)c3ccc(N4CCCC4)c([N+](=O)[O-])c3)CC2)cc1, which Potency is on record?
Its Potency is inconclusive: 20.8 µM [inhibitor, single point].

Which Potency does the source give for Cc1ccc(Cl)cc1NC(=S)N/N=C/c1cccc2ccccc12 here?
The Potency was inconclusive: 2.62 µM [inhibitor, full curve, poor fit].

Which Potency does the source give for COc1cccc(/C=N/NC(=O)c2cc3cc([N+](=O)[O-])ccc3s2)c1O here?
Its Potency is inconclusive: 1.65 µM [inhibitor, partial curve, poor fit].

Which Potency does the source give for O=C1C(c2ccnc3ccccc23)=C(O)c2ccccc21 here?
The Potency was inconclusive: 13.1 µM [inhibitor, single point].

Which Potency does the source give for C#CC[N+](C)(C)CCCCCCCC here?
The Potency was inconclusive: 1.31 µM [inhibitor, full curve, poor fit].

Which Potency does the source give for CC(C)C(=O)NC(NC(=S)Nc1cccc2cccnc12)C(Cl)(Cl)Cl (centres undefined) here?
Its Potency is “inactive”.

With Cc1ccc(/C=C2/C(=O)NC(=O)N(CCc3ccc(F)cc3)C2=O)s1 as the compound, how does the Potency read?
The Potency was “inactive”.

With Cc1ccc(N(CC(O)CN2CCCCC2)S(=O)(=O)c2ccccc2)cc1 (centres undefined) as the compound, how does the Potency read?
The Potency was “inactive”.

With COc1ccccc1NC(=O)CON=C(N)CC(=O)NC1CCCCC1 as the compound, how does the Potency read?
Its Potency is inconclusive: 18.5 µM [inhibitor, single point].

For Nc1nnc(CCN2C(=O)CSC2=O)s1, which Potency is on record?
The Potency was inconclusive: 18.5 µM [inhibitor, single point].

With CSc1ccccc1NC(=O)CN(C)C(=O)c1ccc(NC(=O)c2cccs2)cc1 as the compound, how does the Potency read?
Its Potency is inconclusive: 9.28 µM [inhibitor, single point].

With Cc1cccc(C)c1NC(=S)N/N=C/c1c(Cl)cccc1Cl as the compound, how does the Potency read?
The Potency was “inactive”.

With O=C1CC(C(=O)N2CCN(c3ccccc3O)CC2)CN1Cc1ccccc1 (centres undefined) as the compound, how does the Potency read?
Its Potency is inconclusive: 9.28 µM [inhibitor, single point].

Which Potency does the source give for COc1cc(C(=O)NCC(c2ccco2)N2CCc3ccccc3C2)cc(OC)c1OC (centres undefined) here?
Its Potency is inconclusive: 14.7 µM [inhibitor, partial curve, poor fit].

Which Potency does the source give for CCOC(=O)C1=C(c2ccccc2)NC(=S)NC1c1cccc([N+](=O)[O-])c1 (centres undefined) here?
Its Potency is inconclusive: 18.5 µM [inhibitor, single point].

Which Potency does the source give for COCCCC1CCN(C(=O)C2CCC(=O)N(CC3CCCCC3)C2)CC1 (centres undefined) here?
Its Potency is active: 1.47 µM.

Which Potency does the source give for CC(=O)c1ccc(NC(=O)C2Cc3ccccc3CN2C(=O)c2ccccc2)cc1 (centres undefined) here?
The Potency was active: 14.7 µM.

For O=S(=O)(Nc1nc2ccccc2nc1N1CCN(c2ccccc2)CC1)c1ccc(F)cc1, which Potency is on record?
Its Potency is “inactive”.

Which Potency does the source give for Cc1[nH]c2ccccc2c1/C=N/NC(=O)c1cccc(F)c1 here?
The Potency was inconclusive: 13.1 µM [inhibitor, single point].

For COc1ccc(C(=O)NC2(C(F)(F)F)NC(=O)N(CCCc3ccccc3)C2=O)c(OC)c1OC (centres undefined), which Potency is on record?
Its Potency is inconclusive: 10.4 µM [inhibitor, single point].

Which Potency does the source give for Nc1nc(NCCOCCO)nc(NCc2ccccc2)c1[N+](=O)[O-] here?
The Potency was inconclusive: 4.15 µM [inhibitor, partial curve].

Which Potency does the source give for COCCn1nnnc1C(c1cc2ccc(OC)cc2[nH]c1=O)N1CCN(C2CCCCC2)CC1 (centres undefined) here?
The Potency was inconclusive: 5.22 µM [inhibitor, partial curve].

With Cc1ccc(-c2noc(CSc3nnc(Cc4cccs4)n3-c3ccccc3)n2)cc1 as the compound, how does the Potency read?
Its Potency is active: 4.65 µM.

Which Potency does the source give for COc1cc(O)c(C(CC(=O)N2CCCC2)c2ccc3c(c2)OCO3)c(OC)c1 (centres undefined) here?
Its Potency is inconclusive: 10.4 µM [inhibitor, single point].

For O=C(Nc1ccc(S(=O)(=O)Nc2ncccn2)cc1)c1cc([N+](=O)[O-])ccc1Cl, which Potency is on record?
Its Potency is inconclusive: 1.17 µM [inhibitor, partial curve].

For O=C(CN1C(=O)C(=O)N(C2CCCC2)C1=O)NCCc1ccc(Cl)cc1Cl, which Potency is on record?
Its Potency is “inactive”.

With O=C(Nc1nccs1)c1cccc(S(=O)(=O)N2CCOCC2)c1 as the compound, how does the Potency read?
Its Potency is inconclusive: 18.5 µM [inhibitor, single point].
